PubChem BioAssay AID686938, Drosophila RNAi Screening Center | 2013

- Assay: 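Looking for CRAC channel components and the factors controlling them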 (primary screen)
- System: Drosophila S2R+ cells
- Knock-down reagent: long dsRNA against Drosophila genes, about 0.25 µg dsRNA per well, roughly 10,000 cells
- Timing: 5 days of knock-down before the calcium assay
- Treatment: thapsigargin (SERCA pump blocker) to empty calcium stores; entry signal taken 4 min after adding it
- Read-out: 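Duplicate raw fluo-4 intensities per well from a plate reader, at rest and four minutes after thapsigargin emptied calcium stores; entry-to-rest ratio filled for only some wells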
- Direction: calcium entry signal: higher = stronger calcium signal after store depletion; resting calcium signal: higher = higher resting calcium signal
- Rule for the call: 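Called when the plate z-score of the entry-to-rest ratio, mean of duplicates, falls below −3; wells with low overall dye signal (Fmax z below −2) or more than five off-targets excluded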
- Calls: active = strongly reduced calcium entry; inactive = no strong reduction
The screen tested about 23,000 reagents; this is a random part of those with a known target gene and a result. Of all reagents, 75 (0.33%) are marked active. 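Raw plate signals without normalisation; calls rest on plate z-scores that were not deposited; ratio present for only 364 wells.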 Unmarked entries are inactive. Not given: the dose of the treatment.

| Target gene | dsRNA | calcium entry signal, replicate 1 (fluorescence units) | calcium entry signal, replicate 2 (fluorescence units) | resting calcium signal, replicate 1 (fluorescence units) | resting calcium signal, replicate 2 (fluorescence units) |
| --- | --- | --- | --- | --- | --- |
| nebu | DRSC09807 | 3.97e7 | 2.87e7 | 2.95e7 | 1.60e7 |
| nebu | DRSC09808 | 2.17e7 | 2.97e7 | 1.20e7 | 1.27e7 |
| CG34458 | DRSC06925 | 4.31e7 | 5.78e7 | 1.97e7 | 2.69e7 |
| jeb | DRSC06305 | 1.69e7 | 3.27e7 | 1.01e7 | 1.37e7 |
| jeb | DRSC06307 | 1.69e7 | 2.96e7 | 9.46e6 | 1.28e7 |
| CG6696 | DRSC20004 | 4.38e7 | 4.14e7 | 1.92e7 | 1.57e7 |
| CG31064 | DRSC14756 | 4.62e7 | 5.43e7 | 2.18e7 | 2.12e7 |
| CG31064 | DRSC15941 | 3.81e7 | 6.03e7 | 1.95e7 | 2.62e7 |
| CG31064 | DRSC15942 | 3.92e7 | 5.77e7 | 2.00e7 | 2.32e7 |
| CG31064 | DRSC15943 | 2.90e7 | 5.07e7 | 1.64e7 | 2.31e7 |
| sbr | DRSC19770 | 2.37e7 | 4.01e7 | 1.60e7 | 2.45e7 |
| sbr | DRSC20368 | 2.34e7 | 2.74e7 | 1.56e7 | 1.95e7 |
| CG14971 | DRSC08430 | 4.67e7 | 3.97e7 | 2.76e7 | 1.58e7 |
| Sar1 | DRSC17049 | 2.11e7 | 2.81e7 | 1.17e7 | 1.33e7 |
| Sar1 | DRSC22115 | 3.52e7 | 3.95e7 | 1.76e7 | 2.00e7 |
| CG4970 | DRSC02796 | 4.05e7 | 4.94e7 | 1.98e7 | 2.08e7 |
| lncRNA:CR43334 | DRSC07894 | 4.24e7 | 4.04e7 | 2.26e7 | 1.93e7 |
| lncRNA:CR43334 | DRSC07895 | 4.65e7 | 4.31e7 | 2.43e7 | 1.97e7 |
| Srp54 | DRSC03442 | 2.31e7 | – | 1.51e7 | – |
| Tbh | DRSC18723 | 2.76e7 | 4.81e7 | 1.38e7 | 2.15e7 |
| CG3198 | DRSC18292 | 3.26e7 | 4.16e7 | 1.74e7 | 1.99e7 |

Sorted by “resting calcium signal, replicate 1 (fluorescence units)” (lowest first): some entries from above
| Target gene | dsRNA | calcium entry signal, replicate 1 (fluorescence units) | calcium entry signal, replicate 2 (fluorescence units) | resting calcium signal, replicate 1 (fluorescence units) | resting calcium signal, replicate 2 (fluorescence units) |
| --- | --- | --- | --- | --- | --- |
| Srp54 | DRSC03442 | 2.31e7 | – | 1.51e7 | – |
| Sar1 | DRSC22115 | 3.52e7 | 3.95e7 | 1.76e7 | 2.00e7 |
| CG4970 | DRSC02796 | 4.05e7 | 4.94e7 | 1.98e7 | 2.08e7 |
| lncRNA:CR43334 | DRSC07894 | 4.24e7 | 4.04e7 | 2.26e7 | 1.93e7 |
| lncRNA:CR43334 | DRSC07895 | 4.65e7 | 4.31e7 | 2.43e7 | 1.97e7 |

Further reagents:
| Target gene | dsRNA | calcium entry signal, replicate 1 (fluorescence units) | calcium entry signal, replicate 2 (fluorescence units) | resting calcium signal, replicate 1 (fluorescence units) | resting calcium signal, replicate 2 (fluorescence units) |
| --- | --- | --- | --- | --- | --- |
| SrpRalpha | DRSC20251 | 2.38e7 | 3.57e7 | 1.22e7 | 1.65e7 |
| ppk19 | DRSC15321 | 3.61e7 | 3.88e7 | 1.87e7 | 1.72e7 |
| CG18213 | DRSC15316 | 3.99e7 | 5.94e7 | 1.78e7 | 5.87e7 |
| RpL7-like | DRSC02836 | 1.44e7 | 2.91e7 | 9.51e6 | 1.53e7 |
| CG14153 | DRSC10155 | 2.24e7 | 3.15e7 | 1.24e7 | 1.37e7 |
| CG14153 | DRSC22595 | 2.62e7 | 2.99e7 | 1.54e7 | 1.40e7 |
| CG31104 | DRSC14658 | 3.84e7 | 5.39e7 | 2.13e7 | 2.16e7 |
| ATP8B | DRSC12883 | 3.38e7 | 4.39e7 | 1.82e7 | 2.07e7 |
| ATP8B | DRSC14961 | 2.37e7 | 2.36e7 | 1.25e7 | 1.19e7 |
| CG6664 | DRSC10690 | 3.02e7 | 5.00e7 | 1.36e7 | 3.14e7 |
| CG15717 | DRSC19684 | 4.15e7 | 3.63e7 | 1.97e7 | 1.51e7 |
| CG10280 | DRSC12133 | 4.36e7 | 6.14e7 | 2.01e7 | 2.66e7 |
| CBP | DRSC17746 | 3.41e7 | 4.02e7 | 1.65e7 | 1.72e7 |
| CG15236 | DRSC04970 | 2.39e7 | 3.09e7 | 1.19e7 | 1.28e7 |
| CG15236 | DRSC21396 | 4.46e7 | 3.93e7 | 2.41e7 | 1.92e7 |
| CG15236 | DRSC23025 | 3.60e7 | 3.80e7 | 1.79e7 | 1.80e7 |
| CG12522 | DRSC09088 | 3.84e7 | 4.33e7 | 1.85e7 | 1.99e7 |
| Mgat3 | DRSC01305 | 4.86e7 | 5.30e7 | 2.34e7 | 2.49e7 |
| Ip259 | DRSC03352 | 2.56e7 | – | 1.52e7 | – |
